Measurements reported in PubChem BioAssay AID1224826 (NIAID, 2016).
Aim: 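Regulators of Tlr4 signalling leading to Tnf-alpha expression in macrophages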 (primary screen). Cell system: RAW264.7 G9 macrophages from mouse bearing reporters for p65 (GFP) and the Tnf promoter (mCherry). Knock-down reagent: siRNA pool against mouse genes, 100 nM. Duration: 16 h of LPS stimulation, after 2 days of siRNA transfection. Conditions: bacterial lipopolysaccharide (Salmonella minnesota R595), 10 ng/ml. Measured: 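Imaged Tnf reporter mCherry in nuclei, minus background, normalised per plate to the median and expressed as robust z-scores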. Reading the numbers: Tnf reporter robust z-score: higher = stronger Tnf promoter reporter signal after LPS. Call rule: 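a well counts as active at a score of -1.3 or below (Tlr4 knock-down control median) or above 3 (raised signal); controls and wells holding fewer than 50 cells are excluded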. Meaning of the calls: active = Tnf reporter clearly lowered or raised; inactive = no clear change in Tnf reporter.
The whole screen tested about 17,000 reagents; this is an unselected part. In the full data, about 1,110 (6.6%) were called active. 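Active means lowered or raised reporter signal; replicate intensities are raw and not normalised per plate.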 Unmarked entries are inactive. Not all columns of the deposit are shown. No sequences are given here.

Against Atl1, the values are Tnf reporter robust z-score 1.21; fewer than 50 cells in well enough cells in well.
Serpinb7 showed Tnf reporter robust z-score 0.14; fewer than 50 cells in well enough cells in well.
After knock-down of Akr1c13, the screen gave Tnf reporter robust z-score -0.13; fewer than 50 cells in well enough cells in well.
Senp5 scored Tnf reporter robust z-score 1.02; fewer than 50 cells in well enough cells in well.
With knock-down of Ak5, the screen gave Tnf reporter robust z-score -0.96; fewer than 50 cells in well enough cells in well.
For Fhod3 the deposit lists Tnf reporter robust z-score -1.4 (active); fewer than 50 cells in well enough cells in well.
C130026L21Rik gave Tnf reporter robust z-score -0.52; fewer than 50 cells in well enough cells in well.
Depletion of Rhbdf1 gave: Tnf reporter robust z-score 0.1; fewer than 50 cells in well enough cells in well.
With knock-down of Dock2, the record shows Tnf reporter robust z-score -1.73 (active); fewer than 50 cells in well enough cells in well.
Ifnlr1 gave Tnf reporter robust z-score -0.45; fewer than 50 cells in well enough cells in well.
For Ivns1abp, the entry reads Tnf reporter robust z-score 0.38; fewer than 50 cells in well enough cells in well.
4632433K11Rik gave Tnf reporter robust z-score -1.03; fewer than 50 cells in well enough cells in well.

Part of the list above in another layout:
target,Tnf reporter robust z-score,fewer than 50 cells in well
Ak5,-0.96,enough cells in well
Fhod3,-1.4 (active),enough cells in well
